Test results: article PMC3042988, “The activation mechanism of Irga6, an interferon-inducible GTPase contributing to mouse resistance against Toxoplasma gondii” (BMC Biology, 2011)
These are yes or no findings as the source states them, for the method shown. Binding seen in cells or lysates may run through a third protein. For some of these results: Binding calls can cover weak binding; strength is not graded here.

By UniProt entry, the sequences of proteins in these tests, tags left out. Where a name states a change or a piece, a line headed by the entry shows the natural chain unless it says otherwise.
UniProt Q9QZ85: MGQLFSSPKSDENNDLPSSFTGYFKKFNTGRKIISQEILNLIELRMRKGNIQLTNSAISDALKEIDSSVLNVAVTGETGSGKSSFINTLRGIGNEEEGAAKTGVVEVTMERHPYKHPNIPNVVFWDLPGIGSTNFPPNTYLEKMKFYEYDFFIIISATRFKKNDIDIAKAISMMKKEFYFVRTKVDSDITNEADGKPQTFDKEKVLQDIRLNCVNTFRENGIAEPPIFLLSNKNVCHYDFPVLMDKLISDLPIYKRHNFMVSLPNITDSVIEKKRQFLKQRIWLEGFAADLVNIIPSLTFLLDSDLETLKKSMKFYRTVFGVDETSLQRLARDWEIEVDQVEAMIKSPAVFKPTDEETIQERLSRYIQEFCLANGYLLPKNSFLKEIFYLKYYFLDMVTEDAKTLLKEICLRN

Key:
Experiment in all cases: pull-down; GST-Irga6 bound to glutathione Sepharose 4B, incubated overnight at 4°C with postnuclear supernatant of IFNγ-induced gs3T3 cells (PBS/0.1% Thesit/3 mM MgCl2) with 0.5 mM GDP; Western blot; only the target purified
[1] = target: GST-Irga6 mutant of Asn191 (mouse) (UniProt Q9QZ85)
[2] = target: GST-Irga6 mutant of Ser132 (mouse) (UniProt Q9QZ85)
[3] = target: GST-Irga6 mutant of Gly103 (mouse) (UniProt Q9QZ85)
[4] = target: GST-Irga6 mutant of Arg159 (mouse) (UniProt Q9QZ85)

binding [1]: no binding | binding [2]: binds | binding [3]: binds | binding [4]: no binding
B1: Irgm3 (IGTP) (protein, UniProt Q9DCE9 1-423)
chain: MDLVTKLPQNIWKTFTLFINMANYLKRLISPWSKSMTAGESLYSSQNSSSPEVIEDIGKAVTEGNLQKVIGIVKDEIQSKSRYRVKIAVTGDSGNGMSSFINALRFIGHEEEDSAPTGVVRTTKKPACYSSDSHFPYVELWDLPGLGATAQSVESYLEEMQISTFDLIIIVASEQFSSNHVKLAITMQRMRKRFYVVWTKLDRDLSTSTFPEPQLLQSIQRNIRENLQQAQVRDPPLFLISCFSPSFHDFPELRNTLQKDIFSIRYRDPLEIISQVCDKCISNKAFSLKEDQMLMKDLEAAVSSEDDTANLERGLQTYQKLFGVDDGSLQQVARSTGRLEMGSRALQFQDLIKMDRRLELMMCFAVNKFLRLLESSWWYGLWNVVTRYFRHQRHKLVIEIVAENTKTSLRKALKDSVLPPEIH
